In article PMC5520684 one finds binding data, which are given here for one molecule.

No constants are given. Whether binding was seen depends on the method and setting. Binding seen in cells or lysates may run through a third protein. These calls come from enrichment with a bait or labelling near it, and not all partners need be listed. Tags and fused reporters may be left off the sequences shown.

In the assay the target is T1, HA-tagged MFHAS1 (malignant fibrous histiocytoma amplified sequence 1) (UniProt Q9Y4C4).
T1 sequence: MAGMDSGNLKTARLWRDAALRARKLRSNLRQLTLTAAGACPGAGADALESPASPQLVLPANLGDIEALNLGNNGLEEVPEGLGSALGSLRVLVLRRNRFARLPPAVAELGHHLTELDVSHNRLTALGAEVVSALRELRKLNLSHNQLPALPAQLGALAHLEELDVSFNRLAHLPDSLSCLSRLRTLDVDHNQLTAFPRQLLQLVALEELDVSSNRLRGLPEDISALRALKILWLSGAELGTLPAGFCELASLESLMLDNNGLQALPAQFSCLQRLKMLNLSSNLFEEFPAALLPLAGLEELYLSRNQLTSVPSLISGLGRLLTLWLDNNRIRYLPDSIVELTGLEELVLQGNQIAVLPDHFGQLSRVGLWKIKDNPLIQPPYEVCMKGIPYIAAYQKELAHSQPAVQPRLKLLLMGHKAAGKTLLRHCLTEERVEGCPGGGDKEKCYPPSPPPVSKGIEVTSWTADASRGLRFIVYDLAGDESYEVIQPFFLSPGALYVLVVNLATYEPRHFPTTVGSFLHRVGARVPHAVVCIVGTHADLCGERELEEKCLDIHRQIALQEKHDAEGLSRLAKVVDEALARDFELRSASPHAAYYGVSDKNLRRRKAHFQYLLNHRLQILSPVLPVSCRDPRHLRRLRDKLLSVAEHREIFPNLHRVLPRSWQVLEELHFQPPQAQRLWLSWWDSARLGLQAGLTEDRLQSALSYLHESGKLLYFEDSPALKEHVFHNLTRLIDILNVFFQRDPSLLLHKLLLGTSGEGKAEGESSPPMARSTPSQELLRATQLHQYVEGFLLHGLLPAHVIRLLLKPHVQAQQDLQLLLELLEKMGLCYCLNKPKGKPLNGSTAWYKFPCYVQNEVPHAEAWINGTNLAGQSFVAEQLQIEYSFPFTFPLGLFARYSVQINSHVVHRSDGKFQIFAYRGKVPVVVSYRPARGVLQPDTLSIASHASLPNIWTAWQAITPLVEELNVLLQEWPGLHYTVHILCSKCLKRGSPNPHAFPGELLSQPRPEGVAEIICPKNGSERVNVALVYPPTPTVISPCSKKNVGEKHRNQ
As to the kind of experiment: affinity purification with mass spectrometry; HEK293-MFHAS1 lysate precipitated with anti-HA antibody or normal mouse IgG and protein G-Agarose; SDS-PAGE, Coomassie staining, bands not seen in the control excised.

B1: praja ring finger 2 (praja2), endogenous (protein, UniProt O43164 1-708)
chain: MSQYTEKEPAAMDQESGKAVWPKPAGGYQTITGRRYGRRHAYVSFKPCMTRHERSLGRAGDDYEVLELDDVPKENSSGSSPLDQVDSSLPSEPIFEKSETEIPTCGSALNQTTESSQSFVAVHHSEEGRDTLGSSTNLHNHSEGEYIPGACSASSVQNGIALVHTDSYDPDGKHGEDNDHLQLSAEVVEGSRYQESLGNTVFELENREAEAYTGLSPPVPSFNCEVRDEFEELDSVPLVKSSAGDTEFVHQNSQEIQRSSQDEMVSTKQQNNTSQERQTEHSPEDAACGPGHICSEQNTNDREKNHGSSPEQVVRPKVRKLISSSQVDQETGFNRHEAKQRSVQRWREALEVEESGSDDLLIKCEEYDGEHDCMFLDPPYSRVITQRETENNQMTSESGATAGRQEVDNTFWNGCGDYYQLYDKDEDSSECSDGEWSASLPHRFSGTEKDQSSSDESWETLPGKDENEPELQSDSSGPEEENQELSLQEGEQTSLEEGEIPWLQYNEVNESSSDEGNEPANEFAQPAFMLDGNNNLEDDSSVSEDLDVDWSLFDGFADGLGVAEAISYVDPQFLTYMALEERLAQAMETALAHLESLAVDVEVANPPASKESIDGLPETLVLEDHTAIGQEQCCPICCSEYIKDDIATELPCHHFFHKPCVSIWLQKSGTCPVCRRHFPPAVIEASAAPSSEPDPDAPPSNDSIAEAP
Take B1: the binding result is given as “binds”.
